# Measured values: PubChem BioAssay AID651582 (Sanford-Burnham Center for Chemical Genomics, 2012)
# Some of the results follow. Some of these compounds have results that are not shown, active ones among them.
# Experiment: inhibitors of triacylglycerol accumulation, primary screen, cell-based, uHTS, fluorescence, H9c2 (AID 651582)
# Settings: H9c2 cells, Nile Red lipid (TAG) fluorescence; DAPI nuclei count viability; at 12.5 µM; cells loaded with 200 µM oleic acid
row,Compound,DAPI activity (viability loss) [%]
1,Cc1ccccc1C(=O)NCC1(N2CCCCC2)CCCCC1,-7.48
2,C=CCN1CCN(CCOC(=O)C(O)(c2ccccc2)c2ccccc2)CC1,-6.9
3,O=C(NCC1(N2CCCCC2)CCCCC1)c1cc([N+](=O)[O-])ccc1Cl,3.68
4,CCN(CC)CC(C)C(C)OC(=O)C(O)(c1ccccc1)c1ccccc1 (stereo unspecified),13.4
5,CC(C)N1C(=O)CC2(CCN(CCOC(=O)C(O)(c3ccccc3)c3ccccc3)CC2)C1=O,-0.92
6,O=C(OC1CN2CCC1CC2)C(CO)(c1ccccc1)c1ccccc1 (stereo unspecified),4.63
7,C=C(C)C#CC(O)(C(=O)OC1CCN(C)CC1)c1ccccc1 (stereo unspecified),6.17
8,COc1ccc(Br)c(C(=O)NCC2(N3CCCCC3)CCCCC2)c1,4.68
9,O=C(OCCN1CCCC1)C(O)(c1ccccc1)c1ccccc1,1.98
10,CN(C)c1cccc(C(=O)NCC2(N(C)C)CCCCC2)c1,-0.647
11,COc1cccc(C(=O)NCC2(N3CCCCC3)CCCCC2)c1,-0.6
